Measurements reported in PubChem BioAssay AID1259415 (National Center for Advancing Translational Sciences (NCATS), 2018).
The campaign covered roughly 410,000 compounds. About 18,000 (4.4%) were called active. Inconclusive results, whose numbers are uncertain, are shown with a selection of clear calls. No stated cut-off is given here; in the data, active means activity change below about -60%; inconclusive means no clear call, values can overlap the other calls; inactive means above about -39%.
On the % scale 0 is the no-effect control and ±100 the full control effect.

Test: qHTS Assay for inhibitors of the human cytomegalovirus (HCMV)
Conditions: HFF cells, HCMV-luciferase reporter, 72 h; at 57.5 µM; active compounds read low
Procedure, shortened: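 Steps: HFFs plated, 16 h 37C; compounds added; HCMV-luciferase added to MOI 1 PFU/cell; 72 h 37C; OneGlo reagent, 5 min room temperature; luminescence read, normalized to controls.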
In the case of `Cc1ccc(-n2cc(CN3CCC(O)(c4ccccn4)CC3)c(-c3ccc(F)cc3)n2)cc1`, the activity change, negative = inhibition is reported as inconclusive: -57.9%. In the case of `CSCC[C@H](NC(=O)c1cccc(S(=O)(=O)N2CCCCCC2)c1)c1nc2ccccc2[nH]1`, the activity change, negative = inhibition is reported as inconclusive: -41%. With `O=S(=O)(NCc1ccccc1Cl)c1ccc(N2CCCCS2(=O)=O)cc1` the activity change, negative = inhibition was inconclusive: -51.6%. In the case of `COc1ccc(CCNC(=O)c2cc3c(=O)n4ccccc4nc3n(CCCN3CCOCC3)c2=N)cc1`, the activity change, negative = inhibition is reported as inconclusive: -40.8%. For `CC(C)CN1CCN(Cc2cnc(-c3ccc(Cl)cc3)nc2)CC1CCO` (stereo not given), the activity change, negative = inhibition was inactive: 40.1%. In the case of `Cc1cc(C)n(CC(O)CN(c2ccccc2)S(=O)(=O)c2ccc3ccccc3c2)n1` (stereo not given), the activity change, negative = inhibition is reported as inconclusive: -59.4%. With `Nc1nccc(/C=C/c2ccc(Cl)cc2)n1` the activity change, negative = inhibition was inactive: 80.4%. In the case of `CC(Oc1cccc(Cl)c1)C(=O)Nc1ccc(N2CCOCC2)cc1N1CCOCC1` (stereo not given), the activity change, negative = inhibition is reported as inconclusive: -46.1%. With `COC(=O)c1sc(NC(=O)c2c(OC)cccc2OC)c(C#N)c1C` the activity change, negative = inhibition was inconclusive: -45.5%. With `O=C(NNc1c2ccccc2nc2ccccc12)c1ccc(O)cc1` the activity change, negative = inhibition was inconclusive: -46.6%. With `Cn1c(N)c(C(=O)COC(=O)c2cnc(Cl)c(Cl)c2)c(=O)n(C)c1=O` the activity change, negative = inhibition was active: -99.9%. In the case of `CCOC(=O)C1(Cc2ccccc2C(F)(F)F)CCN(C2CCN(C(C)C)CC2)CC1`, the activity change, negative = inhibition is reported as active: -68.6%. For `CCCCNC(=O)[C@]1(C)CCC[C@@]2(C)C3CC[C@@]4(C)C[C@]3(CCC21)CC4=O` (stereo not given in full), the activity change, negative = inhibition was inactive: -23.5%. For `C=C[C@@H]1c2ccccc2N(S(=O)(=O)c2ccc(C)cc2)[C@H](c2ccc(OC(C)=O)cc2)C1(C#N)C#N`, the activity change, negative = inhibition was inconclusive: -52.3%. With `CC[C@H]1C2C[C@H]3[C@@H]4N(C)c5ccccc5C45C[C@H](C2[C@H]5O)N3[C@@H]1O` (stereo not given in full) the activity change, negative = inhibition was inconclusive: -49.7%. With `COc1cccc(OCc2cc(C(=O)N(C)C3CCCCC3)no2)c1` the activity change, negative = inhibition was inactive: 11.7%. With `COCc1cnc(C)nc1N` the activity change, negative = inhibition was inconclusive: -41.1%. For `COc1ccc(CCc2ccnc3ccccc23)cc1`, the activity change, negative = inhibition was inconclusive: -55.8%. For `CCOC(=O)N1CCN(C(=O)c2ccc(Oc3ccc([N+](=O)[O-])cc3)cc2)CC1`, the activity change, negative = inhibition was active: -83.1%. With `Cc1ccc(NC(=O)CSc2nnc(C)c(=O)[nH]2)cc1C` the activity change, negative = inhibition was inconclusive: -57.4%. For `COC(=O)c1ccc(S(=O)(=O)NCc2ccco2)o1`, the activity change, negative = inhibition was inconclusive: -41.5%. In the case of `CSc1sc(C)cc1C=O`, the activity change, negative = inhibition is reported as inactive: 9.23%. With `COc1cccc2sc(N3CCN(C(=O)CCS(=O)(=O)c4ccc(F)cc4)CC3)nc12` the activity change, negative = inhibition was active: -87.7%. In the case of `CCCN(CCC)S(=O)(=O)c1ccc(NC(=O)c2cc(C(=O)OC)cc([N+](=O)[O-])c2)cc1`, the activity change, negative = inhibition is reported as inconclusive: -48.3%. With `Cc1oc(-c2cc(F)cc(F)c2)nc1CN1CCN(C(=O)c2ccco2)CC1` the activity change, negative = inhibition was inactive: 10%. For `Cc1nn(C)c(C)c1CN(Cc1nc(CCC(C)C)no1)C(C)C`, the activity change, negative = inhibition was active: -83.1%. For `O=C(Nc1ccccc1F)c1ccc(CN2CCc3ccccc3C2)cc1`, the activity change, negative = inhibition was inconclusive: -40.8%. For `CCCS(=O)(=O)N1CCC(n2c(C(F)(F)F)nc3cccnc32)CC1`, the activity change, negative = inhibition was inactive: -21.7%. In the case of `CCOCCCN(C(=O)Cn1nnc(-c2ccc(C)o2)n1)C(C(=O)NC1CCCC1)c1ccc(C)o1` (stereo not given), the activity change, negative = inhibition is reported as inconclusive: -43.6%. With `COc1cccc(C(=O)Nc2ccc(C(=O)NCC3CCCO3)cc2)c1` (stereo not given) the activity change, negative = inhibition was inactive: 3.38%. For `COc1ccc(/C=C2/SC(=S)N(Cc3ccccc3)C2=O)cc1O`, the activity change, negative = inhibition was inconclusive: -51.5%. With `CCc1ccc(CNC(=O)CCn2c(=O)c3cccn3c3ccc(F)cc32)cc1` the activity change, negative = inhibition was inconclusive: -54.9%. In the case of `CC1(OC(=O)C2CCCC2)C(=O)C=C2C=C(c3ccsc3)N(C3CCCCC3)C=C2C1=O` (stereo not given), the activity change, negative = inhibition is reported as inactive: 12.6%. With `Cc1ccc(C23CC4CC(CC(C(=O)NC(C)C(=O)O)(C4)C2)C3)cc1` (stereo not given) the activity change, negative = inhibition was inactive: 12.4%. With `CCc1ccc(-n2c(CCC(=O)O)ccc2-c2ccc(F)cc2)cc1` the activity change, negative = inhibition was inactive: 22%. For `CC(=O)Oc1cccc(N2C(=O)c3ccc(C(=O)O)cc3C2=O)c1`, the activity change, negative = inhibition was inconclusive: -46.1%. For `Cc1cc(C)c(C(=O)CSC2=NC(N)=C(C#N)C3(CCCCC3)C2C(N)=O)cc1C` (stereo not given), the activity change, negative = inhibition was active: -66.5%. In the case of `O=C(C[C@@H]1C/C=C\C[C@@H](Cc2ccc(F)cc2)C(=O)OC[C@H]2CCCN2C1=O)NCCO`, the activity change, negative = inhibition is reported as inconclusive: -45%. In the case of `CCOc1ccc(/C=C/C(=O)Nc2sc3c(c2C(=O)OC)CCC3)cc1`, the activity change, negative = inhibition is reported as inactive: 21.3%. For `CCOc1ccc2c(c1)C(C)=CC(C)(C)N2S(=O)(=O)c1ccc(NC(C)=O)cc1`, the activity change, negative = inhibition was inconclusive: -56.8%. In the case of `COc1ccc(Nc2ccc(S(=O)(=O)N3CCCCC3)cc2[N+](=O)[O-])cc1`, the activity change, negative = inhibition is reported as inactive: -30.7%. With `c1ccc(Nc2nc(N3CCCCC3)nc(N3CCCCC3)n2)cc1` the activity change, negative = inhibition was inactive: 16.4%. In the case of `Cc1cccc(N(C)C(=S)Oc2ccc3ccccc3c2)c1`, the activity change, negative = inhibition is reported as active: -60.6%. In the case of `COc1ccc(-c2csc(C(NC(C)=O)c3cccc(F)c3)n2)cc1` (stereo not given), the activity change, negative = inhibition is reported as inconclusive: -40.9%. For `CSCCCNC(=S)Nc1cccc(S(=O)(=O)NC2=NCCC2)c1`, the activity change, negative = inhibition was inconclusive: -40.9%. For `CC(=Nc1ccccc1)C1=C(O)C(Cc2ccc(O)cc2)NC1=O` (stereo not given), the activity change, negative = inhibition was active: -69.3%. With `Fc1ccccc1CSc1ncnc2c1ncn2C1CCCO1` (stereo not given) the activity change, negative = inhibition was inconclusive: -59.8%. For `Cc1ccc(NC(=O)NCc2ccc3[nH]c(C)cc3c2)cc1`, the activity change, negative = inhibition was active: -84.2%. For `Cc1ccc(CN(Cc2ccco2)C(=O)c2oc3ccc(C)cc3c2C)cc1`, the activity change, negative = inhibition was inactive: 9.21%. With `O=C(O)CCC(=O)Nc1ccccc1Oc1ccccc1` the activity change, negative = inhibition was inactive: 0.688%. In the case of `O=C1N=C(N2C=CC(=C3C=CNC=C3)C=C2)/C(=C/N=NC(=O)c2ccccc2O)S1`, the activity change, negative = inhibition is reported as inactive: 35.5%. With `CCC(C)(C)NC(=O)CN(C(=O)CCC(=O)Nc1nccs1)c1cccc(C)c1C` the activity change, negative = inhibition was inactive: 0.685%. For `O=C(c1cc(COc2ccc(F)cc2Cl)on1)N1CCN(c2cnccn2)CC1`, the activity change, negative = inhibition was inconclusive: -55.9%. With `COCCCNC(=O)c1cccc(S(=O)(=O)N2CC3(C)CC2CC(C)(C)C3)c1` (stereo not given) the activity change, negative = inhibition was inactive: -25.2%. For `CNC(=O)CCSSCCC(=O)NC`, the activity change, negative = inhibition was inconclusive: -47.7%.
